Measurements reported in patent US7208270B2, “Method for diagnosing a person having multiple sclerosis” (priority 2001, dated 2007).
At least one structure is not confirmed: it was looked up by name or label, or the drawing left a doubt.

Tested on: SARG-1 over-expressing PC12 cells
Assay: Viability of SARG-1 over-expressing PC12 cultures treated with kinase inhibitors
Type: cell-based, rat
Details: staurosporine at 100 nM, in comparison to vector control cultures
Source text: To examine the expression and function of SARG-1 in a neural cell culture system, standard molecular biology techniques (Sanbrook et al, 1989) were used to clone the rat SARG-1 coding sequence (rSARG-1479) into the pIRESII-EGFP eukaryotic expression vector (Clontech) under the control of a CMV promoter which bicistroni-cally translates through an internal IRES sequence both SARG-1477 and enhanced green fluorescent protein. The rat pheochromocytoma PC12 cell line was maintained in DMEM supplemented with 8% horse serum, 8% fetal calf serum and an antibiotic-antimycotic mix containing 100 units/ml penicillin, 100 μg/ml streptomycin, and 0.25 μg/ml amphotericin B (all from GibcoBRL) in a fully humidified air atmosphere containing 5% CO2 at 37° C. Semi-confluent cultures in 6-well plates were transfected with pIRES2-EGFP-SARG-1 or empty vector for 18 h in the presence of the uptake enhancing cationic lipid mix pFx1 (Invitrogen) at a 6:1 lipid to DNA ratio in serum-free opti-MEN (Gibco). Stable transfectant colonies were picked from separate wells after selection in […] geneticin (Gibco) and clones with similar EGFP fluorescence expanded from independent transfections.
Over-expression of SARG-1 also enhances terminal differentiation of PC12 cells induced by nerve growth factor (FIG. 14).

O=c1cc(N2CCOCC2)oc2c(-c3ccccc3)cccc12 [LY-294002]
effect on viability / cell death: No similar effects
